At least one compound was matched to its structure with a doubt left.
Test system: PA/PB1 HEK293T (Teton) cell line
Experiment: Dox-controlled inducible PA/PB1 expression, luciferase activity and Western blotting
Assay type: cell-based
Details: Dox 0, 10, 30, 100, 300 ng/mL, 16 h
Procedure: To detect the influence of Doxycycline (Dox) (purchased from Sigma) on controlled inducible PA/PB1 expression, 100,000 PA/PB1 HEK293T (Teton) cells and 300 μL DMEM complete medium were plated in each well of a 48 well plate. After 24 h, Dox was added at concentrations of 0, 10, 30, 100, 300 ng/mL respectively. After 16 h, culture medium in supernatant was removed, and lysis was performed on ice for 10 min using 80 μL renilla luciferase lysate (purchased from Promega, E2820), lysate was mixed by pipetting, 50 μL cell lysate was transferred into a plate for luciferase detection (purchased from PE), 20 μL renilla luciferase substrate (purchased from Promega, E2820) was added into each well, and luciferase activity was detected by a microplate reader (purchased from Bio-Tek, SynergyH1). The remaining 30 μL lysate was used for immune blotting (Western Blotting), the primary antibody used was Anti-Gluc (purchased from NEB), the secondary antibody used was HRP-conjugated Donkey Anti-Rabbit (purchased from Jackson), and expression of PA/PB1 with Gluc fusion tag could be detected by a scanner (purchased from Bio-rad).
When Dox was not added into the PA/PB1 HEK293T (Teton) cell line, luciferase activity of PA/PB1 interaction was the background. […] When Dox was added at a concentration of 300 ng/mL, the difference between its signal value and the background signal value was up to 200 times.

C[C@H]1c2cccc(O)c2C(=O)C2=C(O)[C@]3(O)C(=O)C(C(N)=O)=C(O)[C@@H](N(C)C)[C@@H]3[C@@H](O)[C@@H]21 [Dox, Doxycycline]
expression of PA/PB1 with Gluc fusion tag (Western blotting): increased with the increase in Dox concentration

Reference: patent publication US10526634B2, “Cell line for screening influenza virus polymerase assembly inhibitor and construction method thereof” (Suzhou Institute of Systems Medicine, priority 2015, dated 2020)
